According to paper PMC6220267:
These are yes or no findings as the source states them, for the method shown. In cells and extracts the contact can be indirect. Sequences can lack the tags named with a protein.

Chains of the proteins cited; added tags and fusions are not shown. Residues count along the entry.
UniProt P02649, residues 19-317: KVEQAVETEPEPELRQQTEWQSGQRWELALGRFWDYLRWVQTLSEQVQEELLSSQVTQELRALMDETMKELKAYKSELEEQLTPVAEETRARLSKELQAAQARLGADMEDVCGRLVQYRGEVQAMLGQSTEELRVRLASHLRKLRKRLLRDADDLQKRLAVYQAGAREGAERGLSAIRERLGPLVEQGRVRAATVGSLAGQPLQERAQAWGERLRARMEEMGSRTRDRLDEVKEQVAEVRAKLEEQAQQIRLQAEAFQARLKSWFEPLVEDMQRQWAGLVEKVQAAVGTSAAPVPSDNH

Target: T1, soluble TREML1‐Fc (human, soluble ectodomain) (human) (UniProt Q86YW5)
T1 sequence: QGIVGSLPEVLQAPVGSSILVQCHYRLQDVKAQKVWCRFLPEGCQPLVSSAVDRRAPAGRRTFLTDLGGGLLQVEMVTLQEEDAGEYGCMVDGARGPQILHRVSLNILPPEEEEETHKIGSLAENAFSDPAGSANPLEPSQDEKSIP
Test: pull-down; media of HEK293T cells co-transfected with soluble TREM‐Fc and APOE3; TREM‐Fc captured on BSA pre-blocked anti-human IgG Fc agarose beads, washed with PBS 0.5% Triton; APOE3 detected with Ab947

Substance: APOE3 (secreted into the media of co‐transfected HEK293T cells) (from UniProt P02649 19-317)
- binding: no binding
